Values quoted from earlier work, collected in US10117916B2, “Peptides and combination of peptides for use in immunotherapy against CLL and other cancers” (immatics biotechnologies GmbH, priority 2015, dated 2018).
At least one structure is not confirmed: it was looked up by name or label, or the drawing left a doubt.

Test system: CLL
Settings: CLL patients; Eichhorst et al., 2006; cited from earlier work

In the case of Nc1nc(F)nc2c1ncn2[C@@H]1O[C@H](CO)[C@@H](O)[C@@H]1O [fludarabine], the “complete remission (CR)” value is given as 7%.
